From US20250127167A1, “ANTIMICROBIAL PEPTIDES” (priority 2021, published 2025)
Some entries share one result that the patent states for a list of compounds. Where a SMILES comes first, the peptide text is derived from it. Where no end group is shown, it is not given here. [ ]: non-standard residue; d: D form. Phe(4-Br) = N[C@@H](Cc1ccc(Br)cc1)C(=O)O; Phe(4-F) = N[C@@H](Cc1ccc(F)cc1)C(=O)O; Dopa = N[C@@H](Cc1ccc(O)c(O)c1)C(=O)O

Key:
T4 bacteriophage = assay: Antiviral activity for coatings against T4 bacteriophage (bacteriophage plaque assay); format: cell-based, Escherichia coli bacteriophage T4; conditions: for viruses deactivated by dipeptide coatings: versus bare glass
Protocol: The antiviral activity performance was measured according to work by Kim et al. and Matsumoto et al. with some modification. The peptide coatings were prepared as described before. We used T4 bacteriophage as the virus when we measured the antiviral activity. Bacteriophage suspension was propagated on E. coli (ATCC 11303) according to ISO 18061, which was grown as the host strain. The mixture obtained by adding 100 μL of fresh T4 phage to an overnight culture of E. coli was incubated for 4 h in a 10 mL LB phage at 37° C. After multiplication, the virus was collected by centrifugation at 4000×g for 10 min at room temperature. The concentration of T4 bacteriophage was measured using the soft agar overlay (double-agar layer) plaque assay method. The supernatant containing the bacteriophage culture was filtrated through cellulose acetate filters (Millipore Acrodisc; the pore sizes were 0.45 μm and 0.22 μm) before use (the final concentration of bacteriophage was 10^9 PFU/mL).
Ten decimal serial dilutions of the virus suspension were prepared by LB phage. The aqueous suspensions for the E. coli and T4 bacteriophage inactivation experiments contained sample surfaces having dimensions of 1*1 cm and T4 phage at 1.0×10^6 plaque-forming units (PFU)/mL. As a positive control, we also added 16 μL 1.0×10^6 plaque-forming units (PFU)/mL bacteriophage T4 on bare glass and then treated the surface by a UV irradiation (long wave ultraviolet 365 nm) for 3 h. Next, the phages were incubated under humid conditions at room temperature (25° C.) in a dark room for 24 h. […] The antiviral activity was defined and calculated as eq 2 below: The initial virus titer (No) and the virus titer after incubation (N) were calculated by counting the plaque number. […]
The antiviral activity performance was measured according to our previous work. […] The antiviral activity was defined and calculated as follows: The initial virus titer (NO) and the virus titer after incubation (N) were calculated by counting the plaque number. […]

Canine coronavirus (CCV) = format: cell-based; conditions: summary statement of the general description

In the case of `NC(=O)[C@H](Cc1ccccc1)NC(=O)[C@@H](N)Cc1ccc(O)c(O)c1` [DOPA-Phe-NH2] (H-[Dopa]-Phe-NH2; N-terminus assumed), the “viruses deactivated by dipeptide coatings” value (T4 bacteriophage) is reported as “more than 99.9%”.

For [Dopa]-[Phe(4-Br)]-[Phe(4-Br)]-OMe, the “reduction of the number of T4 bacteriophage” value (T4 bacteriophage; summary statement of the general description) was “more than 99.9%” and the “reduction of the number of canine coronavirus” value (Canine coronavirus (CCV)) was “more than 99.9%”.

For `NC(=O)[C@H](Cc1ccc(F)cc1)NC(=O)[C@@H](N)Cc1ccc(O)c(O)c1` [DOPA-Phe(4F)-NH2] (H-[Dopa]-[Phe(4-F)]-NH2), the “viruses deactivated by dipeptide coatings” value (T4 bacteriophage) was “more than 99.9%”.
